The source of these data is US20170210823A1 (YEDA RESEARCH AND DEVELOPMENT, published 2017).

Results are given in words; binding and its absence hold for the method and conditions named. Some binding calls cover weakened binding; strength is not graded here.

The target in the assay is T1, human LOXL2 (full length enzyme) (human, UniProt Q9Y4K0 26-774).
T1 construct: also called lysyl-oxidase like protein-2
T1 sequence: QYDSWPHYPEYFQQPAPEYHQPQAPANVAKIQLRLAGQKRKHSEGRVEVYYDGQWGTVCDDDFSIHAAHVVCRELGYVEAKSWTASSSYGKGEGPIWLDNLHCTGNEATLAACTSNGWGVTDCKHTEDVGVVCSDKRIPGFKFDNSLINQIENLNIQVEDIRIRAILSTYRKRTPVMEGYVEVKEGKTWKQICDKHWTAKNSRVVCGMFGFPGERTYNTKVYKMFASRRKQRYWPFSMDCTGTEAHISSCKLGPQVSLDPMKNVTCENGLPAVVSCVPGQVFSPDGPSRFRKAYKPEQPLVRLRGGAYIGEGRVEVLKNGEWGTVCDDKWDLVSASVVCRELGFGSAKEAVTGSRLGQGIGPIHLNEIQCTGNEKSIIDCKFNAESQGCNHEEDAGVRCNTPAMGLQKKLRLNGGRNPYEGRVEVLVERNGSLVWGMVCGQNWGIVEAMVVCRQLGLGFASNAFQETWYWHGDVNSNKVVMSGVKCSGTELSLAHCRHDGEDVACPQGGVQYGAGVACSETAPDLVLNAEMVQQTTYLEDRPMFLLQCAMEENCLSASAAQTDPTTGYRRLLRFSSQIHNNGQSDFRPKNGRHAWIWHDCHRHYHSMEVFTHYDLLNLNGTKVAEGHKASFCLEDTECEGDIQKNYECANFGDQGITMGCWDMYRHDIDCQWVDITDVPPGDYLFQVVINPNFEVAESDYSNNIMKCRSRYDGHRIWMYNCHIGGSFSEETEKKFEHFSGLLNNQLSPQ
In words: microscale thermophoresis in solution; x axis printed as [LOXL2], nM; LOXL2 construct not specified on the sheet or in the legend. For orientation: MST reads how a fluorescent partner responds to local heating, with and without ligand.

B1: GS341 antibody (antibody, V domains shown)
VH: QVQLQQPGAELVRPGASVKLSCKASGYSFTNYWMSWVKQRPGQGLEWIGMIHPSDTDIRLHQKFKDKATLTVDKSSSTAYVQLSSPTSEDSAVYYCARGGQLGPWFAYWGQGTLVTVSA
VL: DIVMTQSPASLAVSLGQRATISCRASKSVSTSGYSYMHWYQQKPGQPPKLLIYLASNLESGVPARFSGSGSGTFTLNIHPVEEEDAATYYCQHSRELPWTFGGGTKLEIKR
notes: also called A341; ab341
B1: the binding result was “binds”.
